This experiment concerns BDF1 mice, P388 leukemia ip, median survival T/C. Nature of the experiment: NCI In Vivo Anticancer Drug Screen. Data for tumor model P388 Leukemia (intraperitoneal) in B6D2F1 (BDF1) mice. The settings on record: T/C endpoint: median survival time, higher T/C = longer survival. In outline:
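Transplantable tumour in mice; compound vs vehicle dosing; survival scored; ratio of treated to control reported.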

[1] abbreviates: dose: 25.0 mg/kg/injection, schedule: Q01DX009 (ip), vehicle: saline with Tween-80.
Setting [2] is: dose: 25.0 mg/kg/injection, schedule: Q01DX009 (ip), vehicle: water.
Where [3] appears, read: dose: 50.0 mg/kg/injection, schedule: Q01DX009 (ip), vehicle: water.
Where [4] appears, read: dose: 100.0 mg/kg/injection, schedule: Q01DX009 (ip), vehicle: water.
Setting [5] is: dose: 12.5 mg/kg/injection, schedule: Q01DX009 (ip), vehicle: water.
Setting [6] is: dose: 100.0 mg/kg/injection, schedule: Q01DX005 (ip), vehicle: saline with Tween-80.
[7] abbreviates: dose: 200.0 mg/kg/injection, schedule: Q04DX003 (ip), vehicle: saline with Tween-80.

The list does not hold the whole screen: it is rich in T/C values a quarter to a half above the control, in often repeated tests (any T/C) and in doses without a T/C. Other doses and runs of a compound stand elsewhere. T/C is the treated group as % of the vehicle group. Some doses have a count of surviving animals in place of a T/C: the source files T/C as zero there, which appears to mark a toxic dose or a test without result, not a measured value. Some doses without a T/C left all or most animals alive at the check, yet need not have been tolerated: survival well below the control is almost never listed, so the zero probably covers shortened survival too. Survivors were counted at the toxicity check, usually on the fifth day, unless a day is given; later deaths do not show. Schedule codes are those of the source, read here as Q, the interval in days (D) or hours (H), X, the number of doses. Some doses were run more than once; their values stand side by side, smallest first. For survival time, this PubChem deposit counts one and a half times the control or more as active, and values a quarter to a half above the control carry no call in these data; other NCI protocols may use other cut-offs. Some T/C values are followed by the survivors on the day toxicity was checked, most often the fifth; where none is given, no animal had died by that day.

Consider `CCO/C=C1\SC(=S)N(c2ccc(C(=O)O)cc2)C1=O`, for which the T/C is 130 % of control (dose: 11.0 mg/kg/injection, schedule: Q01DX009 (ip), vehicle: saline with Tween-80); 135 % of control (dose: 16.5 mg/kg/injection, schedule: Q01DX009 (ip), vehicle: saline with Tween-80); 136 % of control (dose: 16.5 mg/kg/injection, schedule: Q01DX009 (ip), vehicle: saline); 125 and 135 % of control under setting [1]; 130 % of control (dose: 37.5 mg/kg/injection, schedule: Q01DX009 (ip), vehicle: saline with Tween-80). In addition, under “dose: 50.0 mg/kg/injection, schedule: Q01DX009 (ip), vehicle: saline with Tween-80”, the survivor count is given as 6 of 6.
`CCn1c2ccc(N)cc2c2c3[nH]c(=O)c4cccn4c3ccc21`: for the setting “dose: 400.0 mg/kg/injection, schedule: Q04DX002 (ip), vehicle: saline with Tween-80”, the survivor count is recorded as 1 of 5.
`CN1C=c2c3c(ccc2=C2C=CC4C=C5OCOC5=CC4=C21)OCO3` (stereo unspecified): the survivor count (dose: 40.0 mg/kg/injection, schedule: Q01DX010 (ip), vehicle: saline) is listed as 4 of 6.
On to `COc1ccc(C2C=C(C)Oc3c2c(=O)oc2ccccc32)cc1OC` (stereo unspecified), for which the survivor count is, setting by setting: under setting [2], 5 of 6; under setting [3], 6 of 6; under setting [4], 6 of 6; (dose: 200.0 mg/kg/injection, schedule: Q01DX009 (ip), vehicle: water) 3 of 6; (dose: 400.0 mg/kg/injection, schedule: Q01DX009 (ip), vehicle: water) 3 of 6.
In the case of `c1ccc([As+](c2ccccc2)(c2ccccc2)c2ccccc2)cc1`, the T/C by setting is: (dose: 0.24 mg/kg/injection, schedule: Q04DX003 (ip), vehicle: saline) 125 % of control; (dose: 0.36 mg/kg/injection, schedule: Q01DX009 (ip), vehicle: saline) 131 % of control; (dose: 0.82 mg/kg/injection, schedule: Q01DX009 (ip), vehicle: saline) 133 % of control; (dose: 1.2 mg/kg/injection, schedule: Q01DX009 (ip), vehicle: saline) 137 % of control; (dose: 1.87 mg/kg/injection, schedule: Q01DX009 (ip), vehicle: saline) 146 % of control; (dose: 3.3 mg/kg/injection, schedule: Q04DX003 (ip), vehicle: saline) 140 and 145 % of control. Moreover, the T/C (dose: 7.5 mg/kg/injection, schedule: Q04DX003 (ip), vehicle: saline) is 140 % of control. For the same compound, the survivor count is 5 of 6 (dose: 0.82 mg/kg/injection, schedule: Q04DX003 (ip), vehicle: saline); 5 of 6 (dose: 7.5 mg/kg/injection, schedule: Q01DX009 (ip), vehicle: saline); 2 of 6 (dose: 11.0 mg/kg/injection, schedule: Q04DX003 (ip), vehicle: saline); 1 of 6 (dose: 17.0 mg/kg/injection, schedule: Q04DX003 (ip), vehicle: saline); 0 of 6 (dose: 25.0 mg/kg/injection, schedule: Q04DX003 (ip), vehicle: saline).
Regarding `C1CCN[N-]C1.C1CCN[N-]C1.[Cl][Pt+2]([Cl])([Cl])[Cl]`, the survivor count is, setting by setting: (dose: 3.12 mg/kg/injection, schedule: Q01DX009 (ip), vehicle: water) 6 of 6; under setting [5], 6 of 6; under setting [2], 6 of 6; under setting [3], 2 of 6; under setting [4], 0 of 6; (dose: 100.0 mg/kg/injection, schedule: Q04DX003 (ip), vehicle: water) 4 of 6. The survivor count (dose: 200.0 mg/kg/injection, schedule: Q04DX003 (ip), vehicle: water) is on record as 1 of 6.
On to `Nc1nc(N)c2c(ccc3c2ccn3Cc2cccc([N+](=O)[O-])c2)n1`, for which the survivor count is recorded as 4 of 5 (dose: 50.0 mg/kg/injection, schedule: Q01DX005 (ip), vehicle: saline with Tween-80); 0 of 5 under setting [6]; 0 of 5 (dose: 200.0 mg/kg/injection, schedule: Q01DX005 (ip), vehicle: saline with Tween-80).
For `O=C1CCCN1`, where the note is “dose: 200.0 mg/kg/injection, schedule: Q04DX003 (ip), vehicle: saline”, the survivor count was 6 of 6.
For `CCCCCCCCCCNC1CC(OC2CC(O)(C(C)=O)Cc3c(O)c4c(c(O)c32)C(=O)c2c(OC)cccc2C4=O)OC(C)C1O` (stereo unspecified), the survivor count is, setting by setting: under setting [5], 3 of 3; under setting [2], 1 of 3; under setting [3], 0 of 3.
As to `CN1C(=O)c2ccccc2CC12c1ccccc1C(=O)N2C` (stereo unspecified), the survivor count under setting [6] is listed as 5 of 5.
Turning to `CCOC(=O)Oc1ccc(/C=N/NC(N)=S)nc1`, the T/C reads like this: (dose: 12.5 mg/kg/injection, schedule: Q01DX009 (ip), vehicle: saline with Tween-80) 142 % of control; under setting [1], 149 % of control.
Take `O=P(Oc1cccc2ccccc12)(N1CC1)N1CC1`: the T/C runs as follows: (dose: 66.0 mg/kg/injection, schedule: Q01DX009 (ip), vehicle: saline with Tween-80) 131 % of control; (dose: 264.0 mg/kg/injection, schedule: Q04DX003 (ip), vehicle: saline with Tween-80) 129 % of control. Also, the survivor count (dose: 400.0 mg/kg/injection, schedule: Q04DX003 (ip), vehicle: saline with Tween-80) is 6 of 6; the survivor count (dose: 600.0 mg/kg/injection, schedule: Q04DX003 (ip), vehicle: saline with Tween-80) is 1 of 6 and 3 of 6.
As to `NC(=S)N/N=C/c1ccc2c(c1)OCO2`, under setting [7], the survivor count is 6 of 6.
`CCCCC/C(C)=N\Nc1ccccn1`: the T/C (dose: 100.0 mg/kg/injection, schedule: Q01DX009 (ip), vehicle: Klucel (hydroxypropylcellulose) (HPC)) was 140 % of control [5 of 6 alive]. The survivor count (dose: 200.0 mg/kg/injection, schedule: Q01DX009 (ip), vehicle: Klucel (hydroxypropylcellulose) (HPC)) was 0 of 6.
Turning to `CCNC(=O)c1cc2cccc(OC)c2oc1=N`, the survivor count runs as follows: (dose: 75.0 mg/kg/injection, schedule: Q01DX009 (ip), vehicle: saline) 7 of 7; (dose: 150.0 mg/kg/injection, schedule: Q01DX009 (ip), vehicle: saline) 7 of 7.
On to `Nc1nc(N)c2nc(Sc3ccc(Cl)cc3)c(-c3ccccc3)nc2n1`, for which the survivor count under setting [7] is listed as 6 of 6.
With `C/C=C/C=C/C(=O)c1ccc(OC)cc1O`, the T/C is, setting by setting: (dose: 200.0 mg/kg/injection, schedule: Q01DX009 (ip), vehicle: saline with Tween-80) 127 % of control; (dose: 400.0 mg/kg/injection, schedule: Q01DX009 (ip), vehicle: saline with Tween-80) 145 % of control.
As to `NC(N)=NCCCCCC(=O)Oc1ccc([N+](=O)[O-])cc1`, the survivor count (dose: 400.0 mg/kg/injection, schedule: Q04DX003 (ip), vehicle: saline) is listed as 2 of 6.
With `COC(=O)/C(C)=C/C1N=C1c1ccccc1` (stereo unspecified), the survivor count by setting is: (dose: 200.0 mg/kg/injection, schedule: Q01DX001 (ip), vehicle: saline with Tween-80) 1 of 6; (dose: 400.0 mg/kg/injection, schedule: Q01DX001 (ip), vehicle: saline with Tween-80) 0 of 6.
As for `N=c1nc2n(cc1F)[C@@H]1O[C@H](CO)[C@@H](O)[C@@H]1O2`, the T/C (dose: 32.0 mg/kg/injection, schedule: Q01DX005 (ip), vehicle: saline) was 137 % of control.
Consider `S=C(N/N=C/c1ccccn1)Nc1ccccn1`, for which the T/C was 135 % of control (dose: 100.0 mg/kg/injection, schedule: Q04DX003 (ip), vehicle: Klucel (hydroxypropylcellulose) (HPC)) and 135 % of control (dose: 200.0 mg/kg/injection, schedule: Q04DX003 (ip), vehicle: Klucel (hydroxypropylcellulose) (HPC)). Moreover, the survivor count (dose: 400.0 mg/kg/injection, schedule: Q04DX003 (ip), vehicle: Klucel (hydroxypropylcellulose) (HPC)) was 4 of 6.
